The results in this text go back to PubChem BioAssay AID493014 (National Center for Advancing Translational Sciences (NCATS), 2011).

The test can be described thus: qHTS Assay to Find Inhibitors of Chronic Active B-Cell Receptor Signaling. As to conditions: ABC-DLBCL IkBa-CBG/CBR reporter, luminescence ratio (green luciferase fused to IkBa over red control in TMD8 lymphoma cells), 4 h. The procedure, abridged: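 TMD8 human ABC-DLBCL cells with doxycycline-inducible IκBα–green luciferase fusion and unfused red luciferase, in 0.5% FBS medium; compounds up to 46 uM, 4 h at 37C. Green/red luminescence ratio, filter-overlap corrected, fitted to concentration-response curves.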
(Quantitative high-throughput screening tests each substance at several concentrations.)

Where [1] appears, read: measured here: CBR red luminescence, cell number.
Setting [2] is: measured here: IkBa-CBG green luminescence.

Each structure is given as a SMILES string. This is one part of the list. Further columns of the screen follow, without active or inactive calls. The list favours compounds with an active or inconclusive main result. Potencies come from curve fits of mixed quality, noted in brackets.

As a reminder, the AC50 is the concentration at which the activity in the assay is half-maximal. Regarding `Cc1cccc(-c2nc(CS(=O)CC(=O)NCCc3ccc(Cl)cc3)c(C)o2)c1` (stereo not given), the AC50 under setting [1] was 12.6 µM [falling, partial curve, poor fit].
On to `CSc1nnc(NC(=O)c2nc(S(=O)(=O)Cc3ccc(C)cc3)ncc2Cl)s1`, for which the AC50 under setting [1] is 20 µM [falling, partial curve, poor fit].
Turning to `CCOC(=O)Cc1csc(NC(=O)/C=C\c2ccccc2Cl)n1`, the AC50 under setting [1] is 2.82 µM [falling, full curve].
On the same count and under the same terms, the result for `COC(=O)c1cccc(NC(=S)N2CCN(C)CC2)c1` reads 11.2 µM [rising, partial curve, poor fit]; that for `CCCC(=O)C1=C(O)C(C(=O)OC)C(C)(C)CC1=Nc1ccc(C)cc1` (stereo not given), 35.5 µM [falling, single point].
`CCOc1ccc(/C=C2\SC(=S)NC2=O)cc1OC`: the AC50 under setting [2] was 11.2 µM [rising, partial curve, poor fit].
In the case of `Cc1ccc(NS(=O)(=O)c2cc(NC(=O)C(C)Oc3ccccc3)ccc2C)c(C)c1` (stereo not given), the AC50 under setting [1] was 0.92 µM [falling, full curve, poor fit].
On the same count and under the same terms, the result for `CCN1CCN(C(c2cccnc2)c2cc(Cl)c3cccnc3c2O)CC1` (stereo not given) reads 28.2 µM [falling, single point]; that for `COc1ccccc1N1CCN(C(=O)C2CCN(C(=O)c3ccccc3C)CC2)CC1`, 11.2 µM [rising, partial curve, poor fit]; that for `Cc1ccccc1OCC(=O)N(Cc1nnc(-c2ccc(Cl)cc2)o1)C(C)C`, 5.17 µM [rising, single point].
Same read-out and setting: the result for `CC(=O)c1sc(NC(=O)C2CC(=O)N(Cc3ccco3)C2)nc1-c1ccccc1` (stereo not given) reads 10.3 µM [falling, partial curve].
On to `COC(=O)c1sccc1N/N=C(\C)c1ccc(F)c(Cl)c1`, for which, under setting [1], the AC50 was 6.51 µM [rising, single point].
The same measure, in the same setting: the result for `CCCCC(C(=O)O)C(C)CC(=O)NNC(=O)c1ccco1` (stereo not given) reads 15.8 µM [falling, partial curve, poor fit]; that for `COc1ccccc1N1CCN(S(=O)(=O)c2ccc3c(c2)NC(=O)C(C)C(=O)N3)CC1` (stereo not given), 0.282 µM [rising, full curve, poor fit].
Take `COc1ccc(NC(=O)C/C(C)=N/NC(=O)c2cnccn2)cc1`: the AC50 under setting [1] is 11.2 µM [falling, partial curve, poor fit].
`N=c1c(S(=O)(=O)c2ccc(Cl)cc2)cc2c(=O)n3ccccc3nc2n1Cc1ccco1`: the AC50 under setting [1] is 1.26 µM [falling, partial curve, poor fit].
Turning to `Cc1ccc(/C=C/C(=O)Nc2ccc(N(C)C)cc2)o1`, under setting [1], the AC50 was 8.2 µM [falling, partial curve].
On to `CC1CN(C(=O)COC(=O)c2ccc(NC(=O)CC#N)cc2)CC(C)O1` (stereo not given), for which the AC50 under setting [1] is 35.5 µM [falling, single point].
In the case of `N#CCCNc1c(Cl)cc(Cl)cc1C(=O)O`, the AC50 under setting [1] was 9.2 µM [rising, partial curve, poor fit].
Regarding `CNC(=O)c1ccc(Nc2nnc(-c3ccc(C)c(S(N)(=O)=O)c3)c3ccccc23)cc1`, the AC50 under setting [1] is 7.94 µM [rising, partial curve, poor fit].
Consider `O=C(c1cn(-c2ccccc2)nc1-c1ccccc1)N1CCN(c2ccccn2)CC1`, for which the AC50 under setting [1] was 22.4 µM [falling, partial curve, poor fit].
As to `COc1ccccc1-c1cc(C(F)(F)F)nc(S(=O)(=O)CCCC(=O)NC(C)C)n1`, the AC50 under setting [1] was 0.316 µM [falling, full curve, poor fit].
With `CCn1nc(C)c(CNC(=O)CCc2nnc(Cc3c[nH]c4ccccc34)o2)c1C`, the AC50 under setting [1] is 11.2 µM [rising, single point].
As to `CCOc1cc(C(=S)N2CCC(O)CC2)ccc1OS(=O)(=O)c1ccc(Br)cc1`, the AC50 under setting [1] is 5.17 µM [falling, partial curve].
On to `O=C(O)C1CCC(Cn2c(SCc3cc(=O)n4ccccc4n3)nc3ccsc3c2=O)CC1` (stereo not given), for which the AC50 under setting [1] is 0.501 µM [rising, partial curve, poor fit].
Regarding `COC(=O)c1cc(C(=O)NCCC(C)C)cc([N+](=O)[O-])c1`, the AC50 under setting [2] is 11.2 µM [rising, partial curve, poor fit].
For the compound `O=C(NN1C(=O)NC2(CCCCC2)C1=O)c1ccc(-c2ccc(Cl)cc2)o1`, the AC50 under setting [1] is 20.6 µM [falling, single point].
Turning to `CC(=O)OC[C@H]1O[C@H](CCO/N=C(\C)CCN2CCCc3nc(C)c(C)cc32)C=C[C@@H]1OC(C)=O`, the AC50 under setting [1] is 7.31 µM [rising, partial curve].
For the compound `O=C(N/N=C/c1cccnc1)c1ccccc1OCc1ccc(Br)cc1`, the AC50 under setting [1] is 0.501 µM [falling, full curve, poor fit].
Take `O=C(NCc1cccs1)c1cc2c(s1)-c1ccccc1OC2`: the AC50 is, setting by setting: under setting [1], 13 µM [falling, partial curve]; under setting [2], 7.31 µM [rising, partial curve, poor fit].
Take `O=C(Nc1ccnc(-c2ccncc2)n1)c1cccs1`: under setting [1], the AC50 was 20 µM [rising, single point].
With `NS(=O)(=O)c1cccc(NC(=O)COC(=O)c2cc(-c3ccc(Cl)cc3)nc3ccccc23)c1`, the AC50 under setting [1] was 16.4 µM [falling, single point].
For the compound `O=C(NNC(=S)Nc1ccccc1)C1CCCCC1`, the AC50 under setting [1] is 12.6 µM [falling, partial curve, poor fit].
Turning to `O=C(Nc1ccc(Cl)c(Cl)c1)N(CCCN1CCOCC1)Cc1cccs1`, under setting [1], the half-maximal activity concentration (AC50) was 16.4 µM [falling, single point].
`CC(C)OCCCNc1ncc2c(n1)CC(c1ccccc1)CC2=O` (stereo not given): the AC50 under setting [1] is 22.4 µM [falling, single point].
As to `COc1ccc(C(=O)c2sc(Nc3ccccc3)nc2N)cc1OC`, the AC50 under setting [1] is 11.2 µM [falling, single point].
Turning to `COc1ccccc1NC(=O)C1CCCN(c2nc(C)cc(C)n2)C1` (stereo not given), the AC50 under setting [1] is 5.8 µM [rising, full curve].
Still for that read-out and setting: the result for `CC(=O)C1=C(O)C(=O)N(C)C1c1ccccc1[N+](=O)[O-]` (stereo not given) reads 10 µM [rising, partial curve].
As to `COC(=O)c1ccc(NC(=S)NC(=O)c2cc(-c3ccccc3)nc3ccccc23)cc1`, the AC50 under setting [1] was 7.31 µM [rising, partial curve, poor fit].
